Publication PMC3364200
Results are given in words; binding and its absence hold for the method and conditions named. In cells and extracts the contact can be indirect. Some entries that bind do so weakly or less than the wild type. Where a sequence is shown, tags or fusion partners need not be part of it.

By UniProt entry, the sequences of proteins in these tests, tags left out.
UniProt Q921N8: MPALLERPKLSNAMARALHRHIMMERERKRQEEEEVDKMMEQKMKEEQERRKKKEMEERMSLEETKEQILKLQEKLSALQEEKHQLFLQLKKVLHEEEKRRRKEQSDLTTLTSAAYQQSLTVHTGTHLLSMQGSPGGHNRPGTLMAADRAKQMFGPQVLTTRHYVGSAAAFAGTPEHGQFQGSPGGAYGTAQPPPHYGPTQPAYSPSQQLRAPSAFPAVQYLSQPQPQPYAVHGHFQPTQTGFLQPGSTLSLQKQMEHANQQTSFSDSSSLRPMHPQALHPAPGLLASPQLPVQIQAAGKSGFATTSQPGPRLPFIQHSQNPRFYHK

Key:
GPS2-Myc = GPS2-Myc (UniProt Q921N8); experiment: co-IP; 293/T cells co-transfected with Flag-ANKRD26-C and a Myc-tagged partner; about 1 mg lysate (20 mM Tris-HCl pH7.5, 150 mM NaCl, 5 mM EDTA, 1% NP40) with 1.5 µg anti-myc antibody 2 hr at 4°C, protein A sepharose; blots with anti-Myc and anti-Flag
HMMR-Myc = biological target: T1, HMMR-Myc (UniProt Q00547); experiment: as above
T1 sequence: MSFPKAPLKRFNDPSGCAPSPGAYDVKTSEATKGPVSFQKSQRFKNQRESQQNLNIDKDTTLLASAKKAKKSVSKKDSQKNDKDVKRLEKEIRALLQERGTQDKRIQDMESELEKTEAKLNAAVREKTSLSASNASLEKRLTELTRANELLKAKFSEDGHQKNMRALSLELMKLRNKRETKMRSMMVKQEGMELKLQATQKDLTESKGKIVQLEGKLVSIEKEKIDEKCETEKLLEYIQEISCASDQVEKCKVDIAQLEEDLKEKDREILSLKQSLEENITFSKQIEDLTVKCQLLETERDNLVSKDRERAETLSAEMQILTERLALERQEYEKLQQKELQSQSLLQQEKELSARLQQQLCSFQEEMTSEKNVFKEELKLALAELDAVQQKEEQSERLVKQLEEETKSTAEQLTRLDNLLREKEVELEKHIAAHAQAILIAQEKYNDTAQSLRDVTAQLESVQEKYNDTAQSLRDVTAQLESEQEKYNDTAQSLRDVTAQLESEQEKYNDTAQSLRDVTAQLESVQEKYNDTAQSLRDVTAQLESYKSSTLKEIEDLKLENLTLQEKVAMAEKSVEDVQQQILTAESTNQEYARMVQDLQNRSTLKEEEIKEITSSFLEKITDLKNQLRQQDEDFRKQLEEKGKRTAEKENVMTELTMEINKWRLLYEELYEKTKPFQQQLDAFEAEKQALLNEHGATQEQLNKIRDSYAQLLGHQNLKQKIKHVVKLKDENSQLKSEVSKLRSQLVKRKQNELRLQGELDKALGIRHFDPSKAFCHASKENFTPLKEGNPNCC

DIPA-Myc [1] = biological target: T2, DIPA-Myc (UniProt Q6PDY0); experiment: as above
T2 sequence: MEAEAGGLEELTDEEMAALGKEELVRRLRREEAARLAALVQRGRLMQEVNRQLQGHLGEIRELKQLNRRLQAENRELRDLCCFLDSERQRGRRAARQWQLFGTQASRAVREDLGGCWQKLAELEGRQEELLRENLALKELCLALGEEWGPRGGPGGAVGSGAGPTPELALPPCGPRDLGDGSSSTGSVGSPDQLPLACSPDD

[2] = biological target: TRIO-Myc (TRIO interacting region, aa 773–1059) (UniProt Q0KL02); experiment: as above
DIPA-Myc [3] = biological target: T2, DIPA-Myc; experiment: co-IP; data not shown; IP experiment with DIPA-Myc and an EGFP tagged ANKRD26-C construct

B1: Flag-ANKRD26-C (human ANKRD26, 1212–1710 fragment) (domain or fragment, UniProt Q9UPS8 1212-1710)
chain: NEKAEREVVVRQLQQELADTLKKQSMSEASLEVTSRYRINLEDETQDLKKKLGQIRNQLQEAQDRHTEAVRCAEKMQDHKQKLEKDNAKLKVTVKKQMDKIEELQKNLLNANLSEDEKEQLKKLMELKQSLECNLDQEMKKNVELEREITGFKNLLKMTRKKLNEYENGEFSFHGDLKTSQFEMDIQINKLKHKIDDLTAELETAGSKCLHLDTKNQILQEELLSMKTVQKKCEKLQKNKKKLEQEVINLRSHIERNMVELGQVKQYKQEIEERARQEIAEKLKEVNLFLQAQAASQENLEQFRENNFASMKSQMELRIKDLESELSKIKTSQEDFNKTELEKYKQLYLEELKVRKSLSSKLTKTNERLAEVNTKLLVEKQQSRSLFTTLTTRPVMEPPCVGNLNNSLDLNRKLIPRENLVISTSNPRASNNSMENYLSKMQQELEKNITRELKEAAAELESGSIASPLGSTDESNLNQDLVWKASREYVQVLKKNYMI
- binding (GPS2-Myc): binds
- binding (HMMR-Myc): binds
- binding (DIPA-Myc [1]): binds
- binding [2]: binds

B2: EGFP tagged ANKRD26-C construct (domain or fragment, UniProt Q9UPS8 1212-1710)
chain: B1 chain
- binding (DIPA-Myc [3]): binds
